In PMC10213016:
Results are given in words; binding and its absence hold for the method and conditions named. In cells and extracts the contact can be indirect. Some results given as binding are weak or reduced against the parent protein; the word gives no strength.

The chains behind the UniProt entries cited, without tags or fusion partners.
UniProt Q15554: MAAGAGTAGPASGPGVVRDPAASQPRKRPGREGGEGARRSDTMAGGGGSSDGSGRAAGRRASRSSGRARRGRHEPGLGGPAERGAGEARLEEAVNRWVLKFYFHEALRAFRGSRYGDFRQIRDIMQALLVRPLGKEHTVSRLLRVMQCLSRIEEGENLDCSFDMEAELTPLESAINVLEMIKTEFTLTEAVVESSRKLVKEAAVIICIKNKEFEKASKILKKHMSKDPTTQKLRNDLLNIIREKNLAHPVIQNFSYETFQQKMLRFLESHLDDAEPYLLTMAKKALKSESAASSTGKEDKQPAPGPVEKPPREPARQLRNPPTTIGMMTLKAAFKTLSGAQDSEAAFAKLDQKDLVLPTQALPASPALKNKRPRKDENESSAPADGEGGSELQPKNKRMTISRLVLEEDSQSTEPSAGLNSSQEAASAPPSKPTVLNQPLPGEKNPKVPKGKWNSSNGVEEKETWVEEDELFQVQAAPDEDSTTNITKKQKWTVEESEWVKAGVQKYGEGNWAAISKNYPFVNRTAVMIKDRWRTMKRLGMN
UniProt P54274: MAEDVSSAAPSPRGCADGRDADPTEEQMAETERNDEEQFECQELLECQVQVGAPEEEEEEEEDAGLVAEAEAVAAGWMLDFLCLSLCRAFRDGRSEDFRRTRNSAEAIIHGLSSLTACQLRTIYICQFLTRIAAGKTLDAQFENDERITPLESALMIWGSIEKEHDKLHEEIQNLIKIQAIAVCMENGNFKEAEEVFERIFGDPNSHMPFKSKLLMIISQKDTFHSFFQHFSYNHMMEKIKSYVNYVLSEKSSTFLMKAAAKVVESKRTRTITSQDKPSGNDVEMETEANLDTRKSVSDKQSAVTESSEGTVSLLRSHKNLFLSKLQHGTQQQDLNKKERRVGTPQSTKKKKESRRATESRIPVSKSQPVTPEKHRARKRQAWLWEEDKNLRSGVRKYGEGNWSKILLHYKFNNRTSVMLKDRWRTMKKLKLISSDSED
UniProt O43524: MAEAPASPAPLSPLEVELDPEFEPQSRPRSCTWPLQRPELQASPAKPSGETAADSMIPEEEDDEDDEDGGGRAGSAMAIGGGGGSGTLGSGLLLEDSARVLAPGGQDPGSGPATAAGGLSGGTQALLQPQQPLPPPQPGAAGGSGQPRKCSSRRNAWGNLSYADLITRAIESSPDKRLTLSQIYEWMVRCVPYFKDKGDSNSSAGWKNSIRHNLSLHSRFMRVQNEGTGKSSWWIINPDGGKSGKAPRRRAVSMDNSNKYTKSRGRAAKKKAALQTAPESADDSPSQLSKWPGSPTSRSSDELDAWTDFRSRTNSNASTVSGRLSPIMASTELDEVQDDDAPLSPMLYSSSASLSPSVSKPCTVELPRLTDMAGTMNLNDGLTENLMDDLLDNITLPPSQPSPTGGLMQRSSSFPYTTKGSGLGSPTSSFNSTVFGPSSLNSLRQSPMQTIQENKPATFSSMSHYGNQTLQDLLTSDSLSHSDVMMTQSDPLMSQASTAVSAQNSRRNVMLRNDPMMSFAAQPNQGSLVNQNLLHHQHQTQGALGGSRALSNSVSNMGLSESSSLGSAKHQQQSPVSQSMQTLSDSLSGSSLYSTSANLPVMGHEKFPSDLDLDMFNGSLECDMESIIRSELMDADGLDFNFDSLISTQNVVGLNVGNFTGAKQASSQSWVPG

Experiments:
[1] = biological target: Telomeric repeat binding factor 2 (TRF2) (human (endogenous in BJ-HELT fibroblasts and skeletal muscle biopsies)) (UniProt Q15554); test: co-IP; human skeletal muscle biopsies of different ages lysed in 50 mM Tris-HCl, 150 mM NaCl, 0,1% NP40, sonicated; immunoprecipitation with TRF2 antibody (NB100-56506) overnight at 4 °C, Protein G Dynabeads; Western blot for FOXO3a
[2] = biological target: TRF1 (human (endogenous in myotubes and BJ-HELT fibroblasts)) (UniProt P54274); test: proximity ligation; PLA between TRF1 and FOXO3a in fixed human myotubes transduced with shScramble or shTERF2; nuclear spots counted
[3] = biological target: Telomeric repeat binding factor 2 (TRF2) (human (endogenous in BJ-HELT fibroblasts and skeletal muscle biopsies)) (UniProt Q15554); test: condition: only cells under starvation (DMEM without FBS, 1 week); proximity ligation; PLA TRF2-FOXO3a in fixed BJ-HELT cells under starvation (DMEM without FBS, 1 week)
[4] = biological target: TRF1 (human (endogenous in myotubes and BJ-HELT fibroblasts)) (UniProt P54274); test: proximity ligation; PLA TRF1-FOXO3a in fixed BJ-HELT cells transfected with siCtrl or siTRF2; nuclear spots counted
[5] = biological target: Telomeric repeat binding factor 2 (TRF2) (human (endogenous in BJ-HELT fibroblasts and skeletal muscle biopsies)) (UniProt Q15554); test: proximity ligation; PLA TRF2-FOXO3a in fixed BJ-HELT cells treated with bleomycin (50 μg/mL, 24 hr); untreated and UV-exposed cells in the same panel; Duolink In Situ Red Mouse/Rabbit kit
[6] = biological target: Telomeric repeat binding factor 2 (TRF2) (human (endogenous in BJ-HELT fibroblasts and skeletal muscle biopsies)) (UniProt Q15554); test: proximity ligation; PLA TRF2-FOXO3a in fixed BJ-HELT cells with siFOXO3a and exogenous full-length or truncated FOXO3a, treated with bleomycin

## FOXO3a (from UniProt O43524 1-673)
[1]
  binding: binds
[2]
  binding: binds
[3]
  binding: no binding
[4]
  binding: binds
[5]
  binding: binds

## full-length FOXO3a (pWPIR-FOXO3aWT-GFP) (from UniProt O43524 1-673)
[6]
  binding: binds
